# Experimental data taken from PMC10415182.
# Positions count from the first letter of the chain named. Results are given in words; binding and its absence hold for the method and conditions named. Binding seen in cells or lysates may run through a third protein. Some results given as binding are weak or reduced against the parent protein; the word gives no strength. Tags and fused reporters may be left off the sequences shown.
# T1: yArf1-11–GFP (yeast Arf1 K38T–E132D–L173S C-terminally fused to GFP) (yeast (Saccharomyces cerevisiae)) (UniProt P11076)
# T1 sequence: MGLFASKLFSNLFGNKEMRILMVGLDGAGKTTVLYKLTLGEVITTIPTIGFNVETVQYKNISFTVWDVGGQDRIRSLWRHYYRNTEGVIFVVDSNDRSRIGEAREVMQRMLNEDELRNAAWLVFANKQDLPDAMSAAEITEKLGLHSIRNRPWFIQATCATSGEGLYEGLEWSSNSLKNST
# T2: yArf1–GFP (wild-type yeast Arf1 C-terminally fused to GFP) (yeast (Saccharomyces cerevisiae)) (UniProt P11076)
# T2 sequence: T1 sequence with T38K, D132E, S173L
# B1: Pex13-6xHA (protein, UniProt P80667 1-386)
# chain: MSSTAVPRPKPWETSASLEEPQRNAQSLSAMMTSNQQDSRPTEESNNSNSASESAPEVLPRPAALNSSGTYGESNTIPGIYGNSNYGIPYDNNPYSMNSIYGNSIGRYGYGGSYYGNNYGSFYGGGYGAGAGYGMNNGSGLGESTKATFQLIESLIGAVTGFAQMLESTYMATHNSFFTMISVAEQFGNLKEMLGSFFGIFAIMKFLKKILYRATKGRLGIPPKNFAESEGSKNKLIEDFQKFNDSGTINSNEKATRRKISWKPLLFFLMAVFGFPYLLNKFITKLQTSGTIRASQGNGSEPIDPSKLEFARALYDFVPENPEMEVALKKGDLMAILSKKDPLGRDSDWWKVRTKNGNIGYIPYNYIEIIKRRKKIEHVDDETRTH
# B2: Dga1-6xHA (enzyme, UniProt Q08650 1-418)
# chain: MSGTFNDIRRRKKEEGSPTAGITERHENKSLSSIDKREQTLKPQLESCCPLATPFERRLQTLAVAWHTSSFVLFSIFTLFAISTPALWVLAIPYMIYFFFDRSPATGEVVNRYSLRFRSLPIWKWYCDYFPISLIKTVNLKPTFTLSKNKRVNEKNYKIRLWPTKYSINLKSNSTIDYRNQECTGPTYLFGYHPHGIGALGAFGAFATEGCNYSKIFPGIPISLMTLVTQFHIPLYRDYLLALGISSVSRKNALRTLSKNQSICIVVGGARESLLSSTNGTQLILNKRKGFIKLAIQTGNINLVPVFAFGEVDCYNVLSTKKDSVLGKMQLWFKENFGFTIPIFYARGLFNYDFGLLPFRAPINVVVGRPIYVEKKITNPPDDVVNHFHDLYIAELKRLYYENREKYGVPDAELKIVG
# B3: Tgl4-6xHA (enzyme, UniProt P36165 1-910)
# chain: MSSKISDLTSTQNKPLLVTQQLIEKYYEQILGTSQNIIPILNPKNKFIRPSKDNSDVERVEEDAGKRLQTGKNKTTNKVNFNLDTGNEDKLDDDQETVTENENNDIEMVETDEGEDERQGSSLASKCKSFLYNVFVGNYERDILIDKVCSQKQHAMSFEEWCSAGARLDDLTGKTEWKQKLESPLYDYKLIKDLTSRMREERLNRNYAQLLYIIRTNWVRNLGNMGNVNLYRHSHVGTKYLIDEYMMESRLALESLMESDLDDSYLLGILQQTRRNIGRTALVLSGGGTFGLFHIGVLGTLFELDLLPRVISGSSAGAIVASILSVHHKEEIPVLLNHILDKEFNIFKDDKQKSESENLLIKISRFFKNGTWFDNKHLVNTMIEFLGDLTFREAYNRTGKILNITVSPASLFEQPRLLNNLTAPNVLIWSAVCASCSLPGIFPSSPLYEKDPKTGERKPWTGSSSVKFVDGSVDNDLPISRLSEMFNVDHIIACQVNIHVFPFLKLSLSCVGGEIEDEFSARLKQNLSSIYNFMANEAIHILEIGSEMGIAKNALTKLRSVLSQQYSGDITILPDMCMLFRIKELLSNPTKEFLLREITNGAKATWPKVSIIQNHCGQEFALDKAISYIKGRMIVTSSLKTPFQFADSVIGLIKAPEQTSDESKNPENSTLLTRTPTKGDNHISNVLDDNLLESESTNSLLLLRENASTYGRSPSGFRPRYSITSASLNPRHQRRKSDTISTSRRPAKSFSFSVASPTSRMLRQSSKINGHPPPILQKKTSMGRLMFPMDAKTYDPESHELIPHSASIETPAMVDKKLHFGRKSRYLRHMNKKWVSSSNILYTDSDKEDHPTLRLISNFDSDAMIHSDLAGNFRRHSIDGRPPSQATKSSPFRSRPSSSTQHKSTTSFTQ
# B4: Faa1-6xHA (enzyme, UniProt P30624 1-700)
# chain: MVAQYTVPVGKAANEHETAPRRNYQCREKPLVRPPNTKCSTVYEFVLECFQKNKNSNAMGWRDVKEIHEESKSVMKKVDGKETSVEKKWMYYELSHYHYNSFDQLTDIMHEIGRGLVKIGLKPNDDDKLHLYAATSHKWMKMFLGAQSQGIPVVTAYDTLGEKGLIHSLVQTGSKAIFTDNSLLPSLIKPVQAAQDVKYIIHFDSISSEDRRQSGKIYQSAHDAINRIKEVRPDIKTFSFDDILKLGKESCNEIDVHPPGKDDLCCIMYTSGSTGEPKGVVLKHSNVVAGVGGASLNVLKFVGNTDRVICFLPLAHIFELVFELLSFYWGACIGYATVKTLTSSSVRNCQGDLQEFKPTIMVGVAAVWETVRKGILNQIDNLPFLTKKIFWTAYNTKLNMQRLHIPGGGALGNLVFKKIRTATGGQLRYLLNGGSPISRDAQEFITNLICPMLIGYGLTETCASTTILDPANFELGVAGDLTGCVTVKLVDVEELGYFAKNNQGEVWITGANVTPEYYKNEEETSQALTSDGWFKTGDIGEWEANGHLKIIDRKKNLVKTMNGEYIALEKLESVYRSNEYVANICVYADQSKTKPVGIIVPNHAPLTKLAKKLGIMEQKDSSINIENYLEDAKLIKAVYSDLLKTGKDQGLVGIELLAGIVFFDGEWTPQNGFVTSAQKLKRKDILNAVKDKVDAVYSSS
# What was measured:
# [1] = biological target: T1, yArf1-11–GFP (yeast Arf1 K38T–E132D–L173S C-terminally fused to GFP) (yeast (Saccharomyces cerevisiae)); experiment: co-IP; anti-GFP magnetic beads (Chromotek) on yeast lysate, 1 h at 4 °C; IP buffer 25 mM Tris–HCl pH 7.5, 150 mM NaCl, 2 mM EDTA, 0.6% Triton X-100, 1 mM DTT; strains grown at 23 °C or shifted to 37 °C; 6xHA-tagged partners on the blot
# [2] = biological target: T2, yArf1–GFP (wild-type yeast Arf1 C-terminally fused to GFP) (yeast (Saccharomyces cerevisiae)); experiment: as above
Binder,binding [1],binding [2]
B1,binds,binds
B2,binds,binds
B3,binds,binds
B4,binds,binds
